According to doi:10.1101/2023.03.10.532066:
Results are given in words; binding and its absence hold for the method and conditions named. In cells and extracts the contact can be indirect. Some entries that bind do so weakly or less than the wild type. Sequences can lack the tags named with a protein.

Key:
[1] = biological target: T1, GLK2-nLUC (Arabidopsis thaliana) (UniProt Q9FFH0); experiment: split reporter
T1 sequence: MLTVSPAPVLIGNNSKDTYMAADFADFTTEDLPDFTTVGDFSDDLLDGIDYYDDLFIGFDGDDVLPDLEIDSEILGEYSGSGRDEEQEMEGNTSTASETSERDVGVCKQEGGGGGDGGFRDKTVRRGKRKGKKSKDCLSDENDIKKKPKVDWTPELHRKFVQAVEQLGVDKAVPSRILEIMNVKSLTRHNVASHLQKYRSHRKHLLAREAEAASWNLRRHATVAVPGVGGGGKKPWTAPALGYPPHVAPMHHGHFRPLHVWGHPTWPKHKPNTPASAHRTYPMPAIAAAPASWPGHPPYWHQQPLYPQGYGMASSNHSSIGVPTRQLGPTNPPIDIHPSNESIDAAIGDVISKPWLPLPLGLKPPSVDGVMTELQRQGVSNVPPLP

[2] = biological target: T2, GST-GLK2 (GOLDEN2-LIKE 2) (Arabidopsis thaliana) (UniProt Q9FFH0); experiment: pull-down
T2 sequence: T1 sequence

[3] = biological target: T3, GST-GLK1 (GOLDEN2-LIKE 1) (Arabidopsis thaliana) (UniProt Q9SIV3); experiment: pull-down
T3 sequence: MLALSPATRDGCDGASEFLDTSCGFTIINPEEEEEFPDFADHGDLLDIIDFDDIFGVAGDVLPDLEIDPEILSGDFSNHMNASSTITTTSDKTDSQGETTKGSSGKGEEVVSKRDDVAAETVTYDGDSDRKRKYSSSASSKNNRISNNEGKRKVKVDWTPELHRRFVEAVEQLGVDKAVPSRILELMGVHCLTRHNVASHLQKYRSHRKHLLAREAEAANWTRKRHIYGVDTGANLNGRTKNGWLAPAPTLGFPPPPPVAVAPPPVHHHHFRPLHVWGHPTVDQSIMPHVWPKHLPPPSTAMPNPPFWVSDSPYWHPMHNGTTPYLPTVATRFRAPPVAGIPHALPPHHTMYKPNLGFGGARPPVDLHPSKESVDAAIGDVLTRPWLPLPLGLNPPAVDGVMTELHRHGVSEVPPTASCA

B1: PAP1 (PRODUCTION OF ANTHOCYANIN PIGMENTS 1) (protein, UniProt Q9FE25 1-248)
chain: MEGSSKGLRKGAWTTEEDSLLRQCINKYGEGKWHQVPVRAGLNRCRKSCRLRWLNYLKPSIKRGKLSSDEVDLLLRLHRLLGNRWSLIAGRLPGRTANDVKNYWNTHLSKKHEPCCKIKMKKRDITPIPTTPALKNNVYKPRPRSFTVNNDCNHLNAPPKVDVNPPCLGLNINNVCDNSIIYNKDKKKDQLVNNLIDGDNMWLEKFLEESQEVDILVPEATTTEKGDTLAFDVDQLWSLFDGETVKFD
[1]
  binding: no binding

B2: TTG1 (… TESTA GLABRA 1) (protein, UniProt Q9XGN1 1-341)
chain: MDNSAPDSLSRSETAVTYDSPYPLYAMAFSSLRSSSGHRIAVGSFLEDYNNRIDILSFDSDSMTVKPLPNLSFEHPYPPTKLMFSPPSLRRPSSGDLLASSGDFLRLWEINEDSSTVEPISVLNNSKTSEFCAPLTSFDWNDVEPKRLGTCSIDTTCTIWDIEKSVVETQLIAHDKEVHDIAWGEARVFASVSADGSVRIFDLRDKEHSTIIYESPQPDTPLLRLAWNKQDLRYMATILMDSNKVVILDIRSPTMPVAELERHQASVNAIAWAPQSCKHICSGGDDTQALIWELPTVAGPNGIDPMSVYSAGSEINQLQWSSSQPDWIGIAFANKMQLLRV
[1]
  binding: no binding

B3: His-TT8 (protein, UniProt Q9FT81 1-518)
chain: MDESSIIPAEKVAGAEKKELQGLLKTAVQSVDWTYSVFWQFCPQQRVLVWGNGYYNGAIKTRKTTQPAEVTAEEAALERSQQLRELYETLLAGESTSEARACTALSPEDLTETEWFYLMCVSFSFPPPSGMPGKAYARRKHVWLSGANEVDSKTFSRAILAKSAKIQTVVCIPMLDGVVELGTTKKVREDVEFVELTKSFFYDHCKTNPKPALSEHSTYEVHEEAEDEEEVEEEMTMSEEMRLGSPDDEDVSNQNLHSDLHIESTHTLDTHMDMMNLMEEGGNYSQTVTTLLMSHPTSLLSDSVSTSSYIQSSFATWRVENGKEHQQVKTAPSSQWVLKQMIFRVPFLHDNTKDKRLPREDLSHVVAERRRREKLNEKFITLRSMVPFVTKMDKVSILGDTIAYVNHLRKRVHELENTHHEQQHKRTRTCKRKTSEEVEVSIIENDVLLEMRCEYRDGLLLDILQVLHELGIETTAVHTSVNDHDFEAEIRAKVRGKKASIAEVKRAIHQVIIHDTNL
[2]
  binding: binds
[3]
  binding: binds

B4: cLUC-TT8 (protein, UniProt Q9FT81 1-518)
chain: B3 chain
[1]
  binding: binds

B5: PAP2 (protein, UniProt Q9ZTC3 1-249)
chain: MEGSSKGLRKGAWTAEEDSLLRLCIDKYGEGKWHQVPLRAGLNRCRKSCRLRWLNYLKPSIKRGRLSNDEVDLLLRLHKLLGNRWSLIAGRLPGRTANDVKNYWNTHLSKKHESSCCKSKMKKKNIISPPTTPVQKIGVFKPRPRSFSVNNGCSHLNGLPEVDLIPSCLGLKKNNVCENSITCNKDDEKDDFVNNLMNGDNMWLENLLGENQEADAIVPEATTAEHGATLAFDVEQLWSLFDGETVELD
[1]
  binding: no binding

B6: GL3 (GLABROUS3) (protein, UniProt Q9FN69 1-637)
chain: MATGQNRTTVPENLKKHLAVSVRNIQWSYGIFWSVSASQSGVLEWGDGYYNGDIKTRKTIQASEIKADQLGLRRSEQLSELYESLSVAESSSSGVAAGSQVTRRASAAALSPEDLADTEWYYLVCMSFVFNIGEGMPGRTFANGEPIWLCNAHTADSKVFSRSLLAKSAAVKTVVCFPFLGGVVEIGTTEHITEDMNVIQCVKTSFLEAPDPYATILPARSDYHIDNVLDPQQILGDEIYAPMFSTEPFPTASPSRTTNGFDQEHEQVADDHDSFMTERITGGASQVQSWQLMDDELSNCVHQSLNSSDCVSQTFVEGAAGRVAYGARKSRVQRLGQIQEQQRNVKTLSFDPRNDDVHYQSVISTIFKTNHQLILGPQFRNCDKQSSFTRWKKSSSSSSGTATVTAPSQGMLKKIIFDVPRVHQKEKLMLDSPEARDETGNHAVLEKKRREKLNERFMTLRKIIPSINKIDKVSILDDTIEYLQELERRVQELESCRESTDTETRGTMTMKRKKPCDAGERTSANCANNETGNGKKVSVNNVGEAEPADTGFTGLTDNLRIGSFGNEVVIELRCAWREGVLLEIMDVISDLHLDSHSVQSSTGDGLLCLTVNCKHKGSKIATPGMIKEALQRVAWIC
[1]
  binding: no binding

B7: EGL3 (ENHANCER OF GLABRA3) (protein, UniProt Q9CAD0 1-596)
chain: MATGENRTVPDNLKKQLAVSVRNIQWSYGIFWSVSASQPGVLEWGDGYYNGDIKTRKTIQAAEVKIDQLGLERSEQLRELYESLSLAESSASGSSQVTRRASAAALSPEDLTDTEWYYLVCMSFVFNIGEGIPGGALSNGEPIWLCNAETADSKVFTRSLLAKSASLQTVVCFPFLGGVLEIGTTEHIKEDMNVIQSVKTLFLEAPPYTTISTRSDYQEIFDPLSDDKYTPVFITEAFPTTSTSGFEQEPEDHDSFINDGGASQVQSWQFVGEEISNCIHQSLNSSDCVSQTFVGTTGRLACDPRKSRIQRLGQIQEQSNHVNMDDDVHYQGVISTIFKTTHQLILGPQFQNFDKRSSFTRWKRSSSVKTLGEKSQKMIKKILFEVPLMNKKEELLPDTPEETGNHALSEKKRREKLNERFMTLRSIIPSISKIDKVSILDDTIEYLQDLQKRVQELESCRESADTETRITMMKRKKPDDEEERASANCMNSKRKGSDVNVGEDEPADIGYAGLTDNLRISSLGNEVVIELRCAWREGILLEIMDVISDLNLDSHSVQSSTGDGLLCLTVNCKHKGTKIATTGMIQEALQRVAWIC
[1]
  binding: no binding
